Where “and” joins values, the source holds several entries; their conditions need not be identical. Identical values can stand only once. Hit rate of the full screen: of about 310,000 compounds, about 17,000 (5.5%) were called active. Inconclusive means that the source gave no clear call. Such entries were picked first, then a sample of the others. Calls come from the whole dose curve; as a rule, active = well fitted inhibition curve with a large enough effect; inconclusive = small, poorly fitted or top-dose-only effect, or effect the other way; inactive = no such curve, though single readings can be large or run the other way. A potency beside an inconclusive call is a rough fit, not a confirmed value.
Biological target: Nuclear receptor ROR-gamma (Mus musculus) (UniProt P51450)
Assay: qHTS for inhibitors of ROR gamma transcriptional activity; note: nearly all actives have a fitted effect of over 60% in size
Details: Drosophila S2 Gal4-RORgamma UAS-luciferase reporter, 20 h; activity change, negative = inhibition: at 53.6 µM (top of the series)
Method in brief: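 Read-out: Photinus luciferase luminescence; inhibitors lower reporter signal. Insect Schneider cells with Gal4-ROR gamma fusion under metallothionein promoter, UAS reporter; 700 uM final copper sulfate induction, 20 hr, ambient temperature.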
% is set by controls: 0 for no effect and ±100 for the full control effect; potency is the fitted concentration of half-maximal effect.

Protein sequences, listed by entry. Tags and fused reporters are not part of them. Lines headed by an entry give the natural chain unless they say otherwise; changes in a name come on top.
UniProt P51450: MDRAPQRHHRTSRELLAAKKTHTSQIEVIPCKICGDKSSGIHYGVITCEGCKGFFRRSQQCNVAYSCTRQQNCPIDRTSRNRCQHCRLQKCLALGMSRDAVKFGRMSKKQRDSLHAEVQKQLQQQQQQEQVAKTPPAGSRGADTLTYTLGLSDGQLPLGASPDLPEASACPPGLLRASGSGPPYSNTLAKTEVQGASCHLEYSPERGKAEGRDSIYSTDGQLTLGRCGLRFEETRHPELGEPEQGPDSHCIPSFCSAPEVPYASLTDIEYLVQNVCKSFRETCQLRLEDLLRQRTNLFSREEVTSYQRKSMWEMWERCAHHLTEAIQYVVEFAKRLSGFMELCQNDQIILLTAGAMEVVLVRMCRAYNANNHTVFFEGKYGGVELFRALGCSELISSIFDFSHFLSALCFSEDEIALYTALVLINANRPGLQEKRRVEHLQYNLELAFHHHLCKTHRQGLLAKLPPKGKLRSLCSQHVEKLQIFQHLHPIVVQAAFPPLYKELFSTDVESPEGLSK

| Compound | Potency | activity change, negative = inhibition |
| --- | --- | --- |
| O=C(Nc1cccc(C(F)(F)F)c1)c1cccn(Cc2ccc3c(c2)OC(F)(F)O3)c1=O | inconclusive: 31.6 µM [activator, single point] | – |
| CCc1ccc(-c2nn(Cc3ccccc3)cc2C=O)cc1 | inconclusive: 25.1 µM [activator, single point] | – |
| CCCC(CCC)C(=O)OC[N+](C)(C)CCOC(=O)C(O)(c1ccccc1)C1CCCC1 (stereo unspecified) | – | inactive: -1.48% |
| O=C(Nc1nnc(SCc2ccccc2Cl)s1)C1COc2ccccc2O1 (stereo unspecified) | inconclusive: 10 µM [activator, partial curve] | – |
| O=C1NC(=O)N(c2cccc(F)c2)C(=O)/C1=C/c1ccc(N2CCOCC2)cc1 | – | inactive: 1.12% |
| C/C(=N\NC(=O)c1ccccc1O)c1c(O)n(C2CCCCC2)c(=O)[nH]c1=O | active: 5.01 µM | – |
| Cc1cc(/C=C2/C(=O)NC(=O)N(Cc3ccco3)C2=O)c(C)n1-c1ccccc1 | inconclusive: 5.62 µM [inhibitor, single point] | – |
| CCCCN1C(=O)/C(=C/c2ccc(N(C)C)cc2)C(=O)N(Cc2ccco2)C1=O | – | inactive: -0.493% |
| CC1=C2CCC3C4CCC(=O)[C@@]4(C)CCC3[C@]2(C)CCC1=O (stereo partly specified) | – | inactive: 3.62% |
| COc1cc(-n2c(=S)[nH]c3ccccc3c2=O)c(Cl)cc1Cl | active: 2.82 µM | – |
| CNC(=O)Oc1ccc2ncccc2c1 | inconclusive: 15.8 µM [inhibitor, single point] | – |
| COc1ccc(C(=O)NC(=S)N2C[C@H]3C[C@H](C2)c2cccc(=O)n2C3)cc1 | inconclusive: 12.6 µM [inhibitor, single point] | – |
| CN(CC1COc2ccccc2O1)c1nc(-c2cccnc2)nc2ccccc12 (stereo unspecified) | inconclusive: 0.891 µM [inhibitor, single point] | – |
| O=C(CCCOc1ccc(Cl)cc1Cl)N1CCC2(CC1)OCCO2 | inconclusive: 15.8 µM [activator, partial curve] | – |
| CN1C(=O)N(C)C(=O)C2(Cc3ccccc3N3CCOCC32)C1=O (stereo unspecified) | inconclusive: 12.6 µM [activator, single point] | – |
| CNC(=S)N/N=C1\C2CN3CCN(C2)CC1(c1ccccc1)C3 | inconclusive: 12.6 µM [inhibitor, single point] | – |
| O=c1c2ccccc2nc(/C=C/c2ccccc2O)n1-c1ccccc1O | – | inactive: 27.1% |
| COc1cccc(-n2c(-c3ccoc3)nc3ccccc3c2=O)c1 | – | inactive: 4.34% |
| Cc1cc(C=C(C#N)C#N)ccc1N1CCCC1 | inconclusive: 15.8 µM [activator, single point] | – |
| BrCC1C[n+]2c(SCc3ccccc3)nc3sc4c(c3c2O1)CCCC4 (stereo unspecified) | inconclusive: 2.24 µM [activator, partial curve, poor fit] | – |
| CCCCc1ccc(C(=O)O)nc1 | active: 7.94 µM and active: 7.08 µM | – |
| CCN1CCN(S(=O)(=O)c2ccc(Cl)c(C(=O)N(CC)CC(=O)Nc3ccc(OC)cc3)c2)CC1 | active: 5.62 µM | – |
| CN1CCN(c2ccc(C(F)(F)F)cc2N)CC1 | – | inactive: -20.2% |

| Compound | Potency | activity change, negative = inhibition |
| --- | --- | --- |
| COC(=O)c1cc(Oc2ccc(Cl)cc2Cl)ccc1[N+](=O)[O-] | inconclusive: 22.4 µM [activator, single point] | – |
| COc1cc([C@@H]2c3cc4c(cc3[C@@H](OC)[C@H]3COC(=O)[C@H]23)OCO4)cc(OC)c1O | – | inactive: 14.4% |
| CCCCCCCCCc1ccc(OCCOCCOCCOCCOCCOCCOCCOCCOCCO)cc1 | inconclusive: 35.5 µM [inhibitor, single point] | – |
| O=C(C(=O)N1CCOCC1)c1cn(Cc2ccccc2Cl)c2ccccc12 | inconclusive: 0.0224 µM [activator, full curve, poor fit] | – |
| CC(=O)Oc1ccc(/C=C/c2cc(OC(C)=O)cc(OC(C)=O)c2)cc1 | active: 3.98 µM | – |
| CCOC(=O)C1=C(C)OC(N)=C(C(=O)OCC)C12C(=O)Nc1ccc(Br)cc12 (stereo unspecified) | inconclusive: 20 µM [activator, single point] | – |
| O=C(c1ccc(Cl)cc1)C1CCCN(Cc2ccc3nonc3c2)C1 (stereo unspecified) | inconclusive: 35.5 µM [activator, single point] | – |
| CN1[C@@H]2CC[C@H]1CC(O[C@@H](c1ccccc1)c1ccc(Cl)cc1)C2 (stereo partly specified) | active: 12.6 µM | – |
| O=P(Oc1ccccc1)(Oc1ccccc1)c1ccccc1 | – | inactive: 2.43% |
| O=C(N/N=C/c1c(O)n(CCc2ccccc2)c(=O)[nH]c1=O)c1ccncc1 | – | inactive: 17.1% |
| CC(C)(C)c1ccc(C(=O)NC(=S)Nn2cnnc2)cc1 | active: 14.1 µM | – |
| CCCCn1c(=O)c(C(=O)NC(C)c2ccccc2)c(O)c2ccccc21 (stereo unspecified) | inconclusive: 22.4 µM [inhibitor, single point] | – |
| CC(=NCCCO)c1c(O)n(Cc2ccccc2)c(=O)[nH]c1=O | inconclusive: 2.24 µM [inhibitor, partial curve, poor fit] | – |
| Cn1c(O)c(/C=C/C=Nc2ccccc2)c(=O)n(C)c1=O | inconclusive: 6.31 µM [activator, full curve] | – |
| Cc1ccc(Cl)c(O)c1 | – | inactive: -2.13% [at 10 µM] |
| CCCC/C(C)=C/[C@@H](NP(=O)(c1ccccc1)c1ccccc1)c1ccccc1 | inconclusive: 22.4 µM [inhibitor, single point] | – |
| CC[N+]12CCC(CC1)C(C(O)(c1ccccc1)c1ccccc1)C2 (stereo unspecified) | – | inactive: -0.726% |
| COc1ccc(-c2nnn(CC(=O)OC3CCCCC3)n2)cc1OC | inconclusive: 12.6 µM [inhibitor, partial curve] | – |
| C=C1C(=O)O[C@@H]2C[C@@H](C)[C@@H]3C=CC(=O)[C@@]3(C)[C@@H](O)[C@H]12 | active: 3.16 µM | – |
| C[N+](C)(C)CC#CCOC(=O)Nc1cccc(Cl)c1 | – | inactive: 17.1% |
| C/C(=N\OC(=O)NC(C)C)c1sc(-c2ccccc2)nc1C | inconclusive: 14.1 µM [activator, single point] | – |
| CN1CCN(c2c(C#N)c(C(F)(F)F)nn2C)CC1 | inconclusive: 35.5 µM [inhibitor, single point] | – |
| O=[N+]([O-])c1cnc2ccc3ccccc3c2c1 | inconclusive: 3.55 µM [inhibitor, partial curve, poor fit] | – |

— PubChem BioAssay AID2551 (National Center for Advancing Translational Sciences (NCATS), 2010)
